Reference: publication PMC11633745

Protein sequences, listed by entry. Tags and fused reporters are not part of them. Lines headed by an entry give the natural chain unless they say otherwise; changes in a name come on top. Residues count along the entry.
UniProt Q03164, residues 3694-3969: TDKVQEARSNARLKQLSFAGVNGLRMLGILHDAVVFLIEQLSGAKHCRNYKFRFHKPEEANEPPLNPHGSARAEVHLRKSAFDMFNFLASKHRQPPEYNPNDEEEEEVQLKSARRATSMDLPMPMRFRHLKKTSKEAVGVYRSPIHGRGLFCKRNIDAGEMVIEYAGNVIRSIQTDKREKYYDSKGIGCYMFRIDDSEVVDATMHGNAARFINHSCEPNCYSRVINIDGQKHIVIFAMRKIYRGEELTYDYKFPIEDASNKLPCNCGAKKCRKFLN
UniProt P23258: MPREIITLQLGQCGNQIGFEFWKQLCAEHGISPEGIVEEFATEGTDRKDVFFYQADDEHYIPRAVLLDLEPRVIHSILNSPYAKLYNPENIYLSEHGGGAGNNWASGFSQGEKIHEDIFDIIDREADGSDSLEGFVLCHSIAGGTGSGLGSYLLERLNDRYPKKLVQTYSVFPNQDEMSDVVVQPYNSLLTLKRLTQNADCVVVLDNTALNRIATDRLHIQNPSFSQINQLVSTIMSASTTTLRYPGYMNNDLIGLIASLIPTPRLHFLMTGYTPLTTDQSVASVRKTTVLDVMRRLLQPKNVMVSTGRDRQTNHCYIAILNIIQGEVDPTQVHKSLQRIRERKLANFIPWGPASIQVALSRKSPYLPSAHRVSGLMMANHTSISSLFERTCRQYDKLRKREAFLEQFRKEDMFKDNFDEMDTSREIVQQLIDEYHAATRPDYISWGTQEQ

Key:
[1] = target: Cep72 (endogenous) (human (endogenous in HeLa)) (UniProt Q9P209); experiment: co-IP; endogenous proteins immunoprecipitated from precleared HeLa cell lysate with anti-MLLC, anti-WDR5 or anti-Cep72 overnight at 4°C, Protein A Sepharose beads; anti-immunoglobulin G as mock IP; Western blot
GST-Cep72 (human) = GST-Cep72 (human) (UniProt Q9P209); experiment: pull-down; GST fusion protein bound to glutathione agarose beads incubated with HeLa whole-cell lysate for 3 hours, washed three times [15 mM tris (pH 7.4), 100 mM KCl, 0.02% NP-40, 1 mM DTT, 1 mM PMSF]; SDS-PAGE and Western blot; only the target purified
[2] = target: GST-MLLCD3 (3694 to 3969 amino acids) (human) (UniProt Q03164); experiment: as above

Measured: binding

γ-tubulin (endogenous) (from UniProt P23258)
binds: [1] | GST-Cep72 (human) | [2]

No constants are given. Whether binding was seen depends on the method and setting. In cells and extracts the contact can be indirect. A result given as binding can be weak or reduced; the word gives no strength.
